Measured data: PubChem BioAssay AID493246 (Drosophila RNAi Screening Center, 2011)
Purpose: 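Genome-wide search for dsRNAs that reduce cell number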 (primary screen). Cells: Drosophila Kc and S2R+ cells. Reagent: long dsRNA against Drosophila genes. Read-out: 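Cell number per well after knock-down, printed as raw plate values; calls were based on per-plate z-scores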. Reading the numbers: Kc cell number and S2R+ cell number: higher = more cells remaining. Call rule: 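Counted as a hit if cell number falls by a z-score of at least 3 within its plate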.
The screen tested about 21,000 reagents; this is an unselected part of those that have a named target and a result. Over the whole deposit, 429 (2%) are marked active. 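Values are raw and not normalised between plates; calls rest on per-plate z-scores that were not deposited.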 Entries without a mark were called inactive. A plus sign joins genes that one reagent is predicted to hit. Not stated in the record: the amount of reagent, the time to read-out.

no.	gene	amplicon	Kc cell number, rep 1	Kc cell number, rep 2	S2R+ cell number, rep 1	S2R+ cell number, rep 2
1	Nmd3 (Nonsense-mediated mRNA 3)	DRSC18687	5.84e5		8.53e5	
2	CG12861	DRSC06201	1.54e6	1.53e6	1.19e6	1.30e6
3	Caf1-55 (Chromatin assembly factor 1, p55 subunit)	DRSC16596	1.47e6	1.54e6	1.16e6	1.20e6
4	CG42540	DRSC08327	1.07e6	1.39e6	7.91e5	7.98e5
5	CG42540	DRSC08328	1.67e6	1.63e6	9.19e5	1.04e6
6	CG42540	DRSC08593	1.16e6 (active)	1.18e6	5.80e5	7.07e5
7	Cog7 (Component of oligomeric golgi complex 7)	DRSC16331	1.67e6	1.72e6	1.03e6	1.16e6
8	CG14598	DRSC12541	1.63e6	1.78e6	1.30e6	1.42e6
9	Spindly	DRSC00430	1.48e6 (active)	1.41e6	7.36e5	8.44e5
10	sunz (sungrazer)	DRSC12559	1.40e6	1.56e6	1.21e6	1.25e6
11	CG11865	DRSC01872	1.68e6	1.75e6	1.21e6	1.44e6
12	CG42557 + CG42558	DRSC13963	1.19e6	1.57e6	1.08e6	1.16e6
13	CG42557 + CG42558	DRSC16329	5.01e5		8.85e5	
14	RpLP1 (Ribosomal protein LP1)	DRSC00783	1.64e6 (active)	1.59e6	7.26e5	8.12e5
15	lili (lilipod)	DRSC14143	1.49e6	1.56e6	1.17e6	1.25e6
16	CG5107	DRSC15716	5.16e5		7.27e5	
17	fsd (fates-shifted)	DRSC06166	1.61e6	1.64e6	1.38e6	1.47e6
18	Uhg2 + snoRNA:Me18S-G1620 + snoRNA:U14:30Ea	DRSC01100	1.42e6	1.46e6	9.49e5	1.08e6
19	MsR2 + CG13802 (retired record)	DRSC08336	1.67e6	1.66e6	9.84e5	1.43e6
20	MsR2 + CG13802 (retired record)	DRSC08337	1.50e6	1.46e6	1.04e6	1.33e6
21	eIF3a (eukaryotic translation initiation factor 3 subunit a)	DRSC12339	1.32e6 (active)	1.40e6	8.21e5	9.31e5
22	Zasp67 (Z band alternatively spliced PDZ-motif protein 67)	DRSC10169	1.58e6	1.77e6	1.27e6	1.35e6
23	KFase (Kynurenine formamidase)	DRSC03258	1.47e6	1.30e6	1.14e6	1.30e6
24	CG13088	DRSC02192	1.66e6	1.66e6	1.17e6	1.33e6
25	grk (gurken)	DRSC03540	1.29e6	1.39e6	5.55e5	6.92e5
26	Ugt302C1 (UDP-glycosyltransferase family 302 member C1)	DRSC15353	1.56e6	1.64e6	1.35e6	1.48e6
27	CG14566	DRSC11727	1.32e6	1.42e6	1.26e6	1.35e6
28	ect (ectodermal)	DRSC10675	1.55e6	1.61e6	1.03e6	1.20e6
29	ect (ectodermal)	DRSC11343	1.48e6	1.43e6	1.30e6	1.33e6
30	Or85b (Odorant receptor 85b)	DRSC16765	1.56e6	1.85e6	1.33e6	1.56e6
31	Srpk79D (Serine-arginine protein kinase at 79D)	DRSC11668	1.75e6	1.71e6	1.40e6	1.41e6
32	Srpk79D (Serine-arginine protein kinase at 79D)	DRSC11856	1.43e6	1.43e6	1.30e6	1.40e6
33	CG30339	DRSC05168	1.45e6	1.48e6	9.26e5	1.07e6
34	NijA (Ninjurin A)	DRSC10637	1.54e6	1.46e6	1.20e6	1.32e6
35	CG12480	DRSC19460	1.54e6	1.53e6	1.04e6	1.21e6
36	Arc2 (Activity-regulated cytoskeleton associated protein 2)	DRSC06436	1.57e6	1.55e6	1.25e6	1.33e6
37	Muc91C (Mucin 91C)	DRSC16297	1.22e6	1.40e6	1.06e6	1.18e6

Sorted by “S2R+ cell number, rep 2” (descending): some entries from above.
gene	amplicon	Kc cell number, rep 1	Kc cell number, rep 2	S2R+ cell number, rep 1	S2R+ cell number, rep 2
CG14598	DRSC12541	1.63e6	1.78e6	1.30e6	1.42e6
Cog7 (Component of oligomeric golgi complex 7)	DRSC16331	1.67e6	1.72e6	1.03e6	1.16e6
Spindly	DRSC00430	1.48e6 (active)	1.41e6	7.36e5	8.44e5
CG42540	DRSC08593	1.16e6 (active)	1.18e6	5.80e5	7.07e5

More entries follow.
no.	gene	amplicon	Kc cell number, rep 1	Kc cell number, rep 2	S2R+ cell number, rep 1	S2R+ cell number, rep 2
38	Zip42C.2 (Zinc/iron regulated transporter-related protein 42C.2)	DRSC05004	1.73e6	1.66e6	1.40e6	1.33e6
39	CG2962	DRSC18247	6.34e5		9.57e5	
40	CG1324	DRSC20496	1.50e6	1.55e6	1.04e6	1.09e6
41	CG14220	DRSC19577	1.67e6	1.62e6	9.74e5	1.14e6
42	CG9016	DRSC03127	1.52e6	1.49e6	1.11e6	1.27e6
43	hrg (hiiragi)	DRSC07502	1.24e6	1.34e6	9.43e5	1.10e6
44	CG4619	DRSC02764	1.37e6	1.45e6	1.13e6	1.22e6
45	Ugt36A1 + CG15418	DRSC00432	1.91e6	1.80e6	1.22e6	1.33e6
46	CG15478	DRSC18057	1.72e6	1.66e6	1.09e6	1.25e6
47	Npc2a (Niemann-Pick type C-2a)	DRSC00698	1.48e6	1.54e6	1.08e6	1.20e6
48	CG12259	DRSC14486	1.44e6	1.49e6	9.85e5	1.08e6
49	Pcmt (Protein-L-isoaspartate (D-aspartate) O-methyltransferase)	DRSC12363	1.57e6	1.77e6	1.31e6	1.53e6
50	CG9083	DRSC04625	1.42e6	1.44e6	1.06e6	1.11e6
51	CG13748	DRSC06419	1.49e6	1.60e6	1.23e6	1.27e6
52	CG3529	DRSC10369	1.36e6	1.46e6	1.15e6	1.12e6
53	nAChRbeta1 (nicotinic Acetylcholine Receptor beta1)	DRSC08097	1.58e6	1.57e6	1.00e6	1.22e6
54	nAChRbeta1 (nicotinic Acetylcholine Receptor beta1)	DRSC08728	1.67e6	1.75e6	1.37e6	1.06e6
55	unc-13-4A	DRSC10201	1.49e6	1.28e6	1.13e6	1.20e6
56	unc-13-4A	DRSC10202	1.44e6	1.35e6	1.08e6	1.14e6
57	unc-13-4A	DRSC10203	6.03e5 (active)	6.81e5	4.48e5	5.61e5
58	unc-13-4A	DRSC11013	1.41e6	1.32e6	1.10e6	1.21e6
59	5-HT7 (5-hydroxytryptamine (serotonin) receptor 7)	DRSC12635	5.62e5		8.77e5	
60	CG3515	DRSC00609	1.57e6	1.62e6	1.08e6	1.29e6
61	CG30378	DRSC05071	1.43e6	1.51e6	9.40e5	1.02e6
62	mura (murashka)	DRSC16483	1.58e6	1.60e6	1.11e6	1.21e6
63	mura (murashka)	DRSC16484	2.19e5 (active)	2.41e5	3.93e5	4.68e5
64	CG33270	DRSC10584	1.25e6	1.49e6	1.05e6	1.34e6
65	CG9394	DRSC04550	1.44e6	1.66e6	1.35e6	3.94e5
66	CG32576 + UQCR-14	DRSC19870	1.26e6	1.24e6	1.08e6	1.15e6
67	Pgm1 (Phosphoglucose mutase 1)	DRSC10490	1.48e6	1.51e6	1.41e6	1.45e6
68	CG10486	DRSC09735	1.63e6	1.51e6	1.03e6	1.15e6
69	CG14024	DRSC00868	1.54e6	1.61e6	1.17e6	1.34e6
70	CG14024	DRSC02354	1.30e6	1.29e6	6.38e5	6.71e5
71	Spg7 (Paraplegin)	DRSC18469	1.45e6	1.49e6	9.55e5	1.11e6
72	CG17570	DRSC01770	5.74e5		8.58e5	
73	CG17570	DRSC03754	1.45e6	1.57e6	1.19e6	2.85e5
74	Idgf2 (Imaginal disc growth factor 2)	DRSC03350	1.23e6	1.35e6	1.32e6	1.36e6
75	Acp53C14b (Accessory gland protein 53C14b)	DRSC06569	1.62e6	1.69e6	1.20e6	1.42e6
